These are yes or no findings as the source states them, for the method shown. Binding seen in cells or lysates may run through a third protein. Some entries that bind do so weakly or less than the wild type.
Key:
[1] = biological target: T1, RBFOX2 (human (endogenous in K562 and NB4)) (UniProt O43251); experiment: co-IP; endogenous proteins from K562 lysate (50 mM Tris-HCl pH 7.5, 150 mM NaCl, 1% NP40); antibody-conjugated Protein G Dynabeads, 4 °C overnight; after RNase A/T1 treatment; western blot
T1 sequence: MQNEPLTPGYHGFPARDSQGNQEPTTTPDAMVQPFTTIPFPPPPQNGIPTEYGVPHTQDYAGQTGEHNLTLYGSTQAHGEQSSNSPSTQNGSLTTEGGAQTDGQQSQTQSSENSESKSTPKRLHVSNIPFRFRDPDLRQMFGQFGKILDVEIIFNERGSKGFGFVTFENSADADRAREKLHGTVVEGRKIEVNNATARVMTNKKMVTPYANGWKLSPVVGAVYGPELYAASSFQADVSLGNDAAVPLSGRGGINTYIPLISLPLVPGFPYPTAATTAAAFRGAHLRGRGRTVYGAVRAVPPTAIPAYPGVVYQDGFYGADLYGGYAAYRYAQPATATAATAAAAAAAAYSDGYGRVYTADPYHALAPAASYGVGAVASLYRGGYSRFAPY

[2] = biological target: T1, RBFOX2 (human (endogenous in K562 and NB4)); experiment: co-IP; endogenous proteins immunoprecipitated from NB4 cells, after RNase A/T1 treatment; western blot

B1: RBM15 (protein, UniProt Q96T37 1-977)
chain: MRTAGRDPVPRRSPRWRRAVPLCETSAGRRVTQLRGDDLRRPATMKGKERSPVKAKRSRGGEDSTSRGERSKKLGGSGGSNGSSSGKTDSGGGSRRSLHLDKSSSRGGSREYDTGGGSSSSRLHSYSSPSTKNSSGGGESRSSSRGGGGESRSSGAASSAPGGGDGAEYKTLKISELGSQLSDEAVEDGLFHEFKRFGDVSVKISHLSGSGSGDERVAFVNFRRPEDARAAKHARGRLVLYDRPLKIEAVYVSRRRSRSPLDKDTYPPSASVVGASVGGHRHPPGGGGGQRSLSPGGAALGYRDYRLQQLALGRLPPPPPPPLPRDLERERDYPFYERVRPAYSLEPRVGAGAGAAPFREVDEISPEDDQRANRTLFLGNLDITVTESDLRRAFDRFGVITEVDIKRPSRGQTSTYGFLKFENLDMSHRAKLAMSGKIIIRNPIKIGYGKATPTTRLWVGGLGPWVPLAALAREFDRFGTIRTIDYRKGDSWAYIQYESLDAAHAAWTHMRGFPLGGPDRRLRVDFADTEHRYQQQYLQPLPLTHYELVTDAFGHRAPDPLRGARDRTPPLLYRDRDRDLYPDSDWVPPPPPVRERSTRTAATSVPAYEPLDSLDRRRDGWSLDRDRGDRDLPSSRDQPRKRRLPEESGGRHLDRSPESDRPRKRHCAPSPDRSPELSSSRDRYNSDNDRSSRLLLERPSPIRDRRGSLEKSQGDKRDRKNSASAERDRKHRTTAPTEGKSPLKKEDRSDGSAPSTSTASSKLKSPSQKQDGGTAPVASASPKLCLAWQGMLLLKNSNFPSNMHLLQGDLQVASSLLVEGSTGGKVAQLKITQRLRLDQPKLDEVTRRIKVAGPNGYAILLAVPGSSDSRSSSSSAASDTATSTQRPLRNLVSYLKQKQAAGVISLPVGGNKDKENTGVLHAFPPCEFSQQFLDSPAKALAKSEEDYLVMIIVRGFGFQIGVRYENKKRENLALTLL
- binding [1]: binds
- binding [2]: binds

From paper PMC10495261
